# These are yes or no findings as the source states them, for the method shown. A result given as binding can be weak or reduced; the word gives no strength. Where a sequence is shown, tags or fusion partners need not be part of it.
# By UniProt entry, the sequences of proteins in these tests, tags left out. Where a name states a change or a piece, a line headed by the entry shows the natural chain unless it says otherwise.
# UniProt P26648: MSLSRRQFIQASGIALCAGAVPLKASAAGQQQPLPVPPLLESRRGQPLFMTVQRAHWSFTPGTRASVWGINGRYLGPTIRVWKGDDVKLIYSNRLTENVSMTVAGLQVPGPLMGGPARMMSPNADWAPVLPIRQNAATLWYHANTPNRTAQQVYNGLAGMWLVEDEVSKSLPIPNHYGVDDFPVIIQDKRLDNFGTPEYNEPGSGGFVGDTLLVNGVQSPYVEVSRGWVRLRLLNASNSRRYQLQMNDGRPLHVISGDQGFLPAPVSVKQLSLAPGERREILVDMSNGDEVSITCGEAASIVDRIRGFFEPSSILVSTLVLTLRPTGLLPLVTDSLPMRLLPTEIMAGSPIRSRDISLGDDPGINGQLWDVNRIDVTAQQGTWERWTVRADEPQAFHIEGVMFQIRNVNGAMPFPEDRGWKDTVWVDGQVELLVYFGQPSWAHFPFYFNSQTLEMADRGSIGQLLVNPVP
# Biological target: T1, TatC with a C-terminal 3XFLAG tag (E. coli) (UniProt P69423)
# T1 sequence: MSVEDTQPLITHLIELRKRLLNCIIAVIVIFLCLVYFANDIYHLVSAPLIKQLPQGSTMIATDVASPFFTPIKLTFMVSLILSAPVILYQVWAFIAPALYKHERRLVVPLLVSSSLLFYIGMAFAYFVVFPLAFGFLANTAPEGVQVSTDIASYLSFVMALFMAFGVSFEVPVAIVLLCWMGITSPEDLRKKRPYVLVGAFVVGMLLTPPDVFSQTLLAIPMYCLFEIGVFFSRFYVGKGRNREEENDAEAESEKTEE
# Assay: cryo-EM structure
substance,measurement,value
SufI–8×His (from UniProt P26648),binding,binds

# From article doi:10.1101/2025.09.16.676506
